Taken from: PubChem BioAssay AID1259254 (NCATS, 2017)
Here is a random part of about 59,000 deposited reagents. Over the whole deposit, about 1,550 (2.6%) were called active. 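G2 share is only a proxy for re-replication; each gene was hit by three separate siRNAs, and active genes were retested.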 Reagents against one gene are numbered here. Further read-outs or replicates are left out here. Not given: the amount of reagent.

Assay: 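Genome-wide screen for genes that prevent DNA re-replication in cancer cells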 (primary screen)
Cell system: human HCT116 colorectal cancer cells
Reagent: single siRNA against human genes
Timing: 3 days
Measured: 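Nuclei stained with Hoechst and imaged; cell-cycle phase assigned by DNA content; G2 share scaled per plate, non-targeting siRNA 0%, GMNN siRNA 100%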
Scale: G2 robust z-score: higher = more G2 cells, more excess DNA replication
Active means: 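Active siRNAs have a G2 robust z of 5 or more median absolute deviations over the median, which in these data means about 38% or higher of GMNN control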

Gene | reagent no. | G2 robust z-score | Call
TPRG1 (tumor protein p63 regulated 1) | 1 | 0.0283 | inactive
TPRG1 (tumor protein p63 regulated 1) | 2 | -0.615 | inactive
TPRG1 (tumor protein p63 regulated 1) | 3 | 2.37 | inactive
DNER (delta/notch like EGF repeat containing) | 1 | -0.539 | inactive
DNER (delta/notch like EGF repeat containing) | 2 | -0.435 | inactive
DNER (delta/notch like EGF repeat containing) | 3 | 0.518 | inactive
PON3 (paraoxonase 3) | 1 | -0.156 | inactive
PON3 (paraoxonase 3) | 2 | 3.98 | inactive
PON3 (paraoxonase 3) | 3 | -0.553 | inactive
FAM86B2 (family with sequence similarity 86 member B2) | 1 | 0.35 | inactive
FAM86B2 (family with sequence similarity 86 member B2) | 2 | -0.207 | inactive
FAM86B2 (family with sequence similarity 86 member B2) | 3 | -0.103 | inactive
KIF4A (kinesin family member 4A) | 1 | 0.29 | inactive
KIF4A (kinesin family member 4A) | 2 | 1.15 | inactive
KIF4A (kinesin family member 4A) | 3 | 3.29 | inactive
NR1D1 (nuclear receptor subfamily 1 group D member 1) | 1 | 0.0228 | inactive
NR1D1 (nuclear receptor subfamily 1 group D member 1) | 2 | -0.328 | inactive
NR1D1 (nuclear receptor subfamily 1 group D member 1) | 3 | -0.011 | inactive
TXNDC9 (thioredoxin domain containing 9) | 1 | -1.06 | inactive
TXNDC9 (thioredoxin domain containing 9) | 2 | 1.03 | inactive
TXNDC9 (thioredoxin domain containing 9) | 3 | 2.52 | inactive
B3GALT6 (beta-1,3-galactosyltransferase 6) | 1 | -1.14 | inactive
B3GALT6 (beta-1,3-galactosyltransferase 6) | 2 | 0.294 | inactive
B3GALT6 (beta-1,3-galactosyltransferase 6) | 3 | -0.587 | inactive
WDR26 (WD repeat domain 26) | 1 | 0.385 | inactive
WDR26 (WD repeat domain 26) | 2 | -0.856 | inactive
WDR26 (WD repeat domain 26) | 3 | 0.366 | inactive
KRT34 (keratin 34) | 1 | -0.626 | inactive
KRT34 (keratin 34) | 2 | -0.7 | inactive
KRT34 (keratin 34) | 3 | -0.137 | inactive
LYRM9 (LYR motif containing 9) | 1 | 0.706 | inactive
LYRM9 (LYR motif containing 9) | 2 | -0.253 | inactive
LYRM9 (LYR motif containing 9) | 3 | -0.281 | inactive
GRM5 (glutamate metabotropic receptor 5) | 1 | -0.554 | inactive
GRM5 (glutamate metabotropic receptor 5) | 2 | 2.83 | inactive
GRM5 (glutamate metabotropic receptor 5) | 3 | -0.172 | inactive
ELAVL1 (ELAV like RNA binding protein 1) | 1 | 0.33 | inactive
ELAVL1 (ELAV like RNA binding protein 1) | 2 | -1.21 | inactive
ELAVL1 (ELAV like RNA binding protein 1) | 3 | -0.729 | inactive
FAM161A (FAM161 centrosomal protein A) | 1 | -0.801 | inactive
FAM161A (FAM161 centrosomal protein A) | 2 | -0.4 | inactive
FAM161A (FAM161 centrosomal protein A) | 3 | -0.126 | inactive

The list goes on; the last 9 above are carried over.
Gene | reagent no. | G2 robust z-score | Call
GRM5 (glutamate metabotropic receptor 5) | 1 | -0.554 | inactive
GRM5 (glutamate metabotropic receptor 5) | 2 | 2.83 | inactive
GRM5 (glutamate metabotropic receptor 5) | 3 | -0.172 | inactive
ELAVL1 (ELAV like RNA binding protein 1) | 1 | 0.33 | inactive
ELAVL1 (ELAV like RNA binding protein 1) | 2 | -1.21 | inactive
ELAVL1 (ELAV like RNA binding protein 1) | 3 | -0.729 | inactive
FAM161A (FAM161 centrosomal protein A) | 1 | -0.801 | inactive
FAM161A (FAM161 centrosomal protein A) | 2 | -0.4 | inactive
FAM161A (FAM161 centrosomal protein A) | 3 | -0.126 | inactive
FENDRR (FOXF1 adjacent non-coding developmental regulatory RNA) | 1 | 0.382 | inactive
FENDRR (FOXF1 adjacent non-coding developmental regulatory RNA) | 2 | -0.355 | inactive
FENDRR (FOXF1 adjacent non-coding developmental regulatory RNA) | 3 | 0.432 | inactive
FENDRR (FOXF1 adjacent non-coding developmental regulatory RNA) | 4 | 0.67 | inactive
FENDRR (FOXF1 adjacent non-coding developmental regulatory RNA) | 5 | 2.9 | inactive
FENDRR (FOXF1 adjacent non-coding developmental regulatory RNA) | 6 | -0.438 | inactive
ZNF235 (zinc finger protein 235) | 1 | 4.61 | inactive
ZNF235 (zinc finger protein 235) | 2 | 1.32 | inactive
ZNF235 (zinc finger protein 235) | 3 | -0.824 | inactive
CST3 (cystatin C) | 1 | -0.3 | inactive
CST3 (cystatin C) | 2 | 3.32 | inactive
CST3 (cystatin C) | 3 | -0.0822 | inactive
C4orf50 (chromosome 4 open reading frame 50) | 1 | 2 | inactive
C4orf50 (chromosome 4 open reading frame 50) | 2 | -0.523 | inactive
C4orf50 (chromosome 4 open reading frame 50) | 3 | 0.321 | inactive
AQP2 (aquaporin 2) | 1 | 0.305 | inactive
AQP2 (aquaporin 2) | 2 | -1.22 | inactive
AQP2 (aquaporin 2) | 3 | 0.057 | inactive
FAM215B (family with sequence similarity 215 member B) | 1 | 0.136 | inactive
FAM215B (family with sequence similarity 215 member B) | 2 | 4.08 | inactive
FAM215B (family with sequence similarity 215 member B) | 3 | -0.615 | inactive
FAM163A (family with sequence similarity 163 member A) | 1 | -0.717 | inactive
FAM163A (family with sequence similarity 163 member A) | 2 | 0.999 | inactive
FAM163A (family with sequence similarity 163 member A) | 3 | 4.56 | inactive
ESRRG (estrogen related receptor gamma) | 1 | -0.505 | inactive
ESRRG (estrogen related receptor gamma) | 2 | 1.09 | inactive
ESRRG (estrogen related receptor gamma) | 3 | 0.269 | inactive
